Results from one PubChem assay

Source: PubChem BioAssay AID593 (NCATS, 2007).

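Compound intrinsic fluorescence in pH 8.0 Tris buffer, no cells, read at 480 nm excitation and 540 nm emission after 15 minutes at room temperature.
The test concentration is not given here.
The highest fluorescein-equivalent concentration (molar) reached across the compound's tested levels; a larger value means stronger autofluorescence.
Inconclusive calls here sit at roughly 1 to 7 nM fluorescein-equivalent; values above about 10 nM are called active.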

Values are in M.
Every entry below has the call inconclusive.
Only part of the assay is shown, chiefly results filed as inconclusive.
An entry listed twice with the same setting is a separate test.

Compound	max fluorescein-equivalent concentration (M)
CCOC(=O)O[C@@H](C)OC(=O)[C@@H]1N2C(=O)[C@@H](NC(=O)[C@@H](N)c3ccccc3)[C@H]2SC1(C)C	0.0000000
O=C(O)/C=C\c1ccc(Cn2ccnc2)cc1	0.0000000
CN1C(C(=O)Nc2ccccn2)=C(O)c2sccc2S1(=O)=O	0.0000000
C[C@]12CC[C@H]3[C@@H](CCC4=CC(=O)CC[C@@]43C)[C@@H]1CC[C@@H]2C(=O)CO	0.0000000
c1ccc2c(c1)CCCN2Cc1nnnn1C1CCCC1	0.0000000
Clc1ccccc1CN1CCc2sccc2C1	0.0000000
CCOC(=O)N1CCC(=C2c3ccc(Cl)cc3CCc3cccnc32)CC1	0.0000000
CN(C)CCC(c1ccc(Br)cc1)c1ccccn1 (stereo not shown)	0.0000000
Cc1cn([C@H]2C[C@H](N=[N+]=[N-])[C@H](CO)O2)c(=O)[nH]c1=O	0.0000000
CCCCOc1cc(C(=O)OCCN(CC)CC)ccc1N	0.0000000
Clc1ccccc1CN1CCc2sccc2C1	0.0000000
O=P1(N(CCCl)CCCl)NCCCO1 (stereo not shown)	0.0000000
C[N+](C)(C)CCO	0.0000000
CN(C)C(N)=NCCC[C@H](N)C(=O)O	0.0000000
CCN(CC)CCC[C@H](C)Nc1ccnc2cc(Cl)ccc12	0.0000000
COc1cc2nc(N3CCN(C(=O)c4ccco4)CC3)nc(N)c2cc1OC	0.0000000
C[C@@H]1COc2c(N3CCN(C)CC3)c(F)cc3c(=O)c(C(=O)O)cn1c23	0.0000000
NC(=NCc1ccccc1)NC(=O)c1nc(Cl)c(N)nc1N	0.0000000
CC1=C(C(=O)O)N2C(=O)[C@@H](NC(=O)[C@@H](N)c3ccc(O)cc3)[C@@H]2SC1	0.0000000
Cc1cccn2c(=O)c3cc(C(=O)NCc4ccco4)c(=N)n(C(C)C)c3nc12	0.0000000
C/C=C\C[C@H](C)[C@H](O)[C@H]1C(=O)N[C@@H](CC)C(=O)N(C)CC(=O)N(C)[C@@H](CC(C)C)C(=O)N[C@@H](C(C)C)C(=O)N(C)[C@@H](CC(C)C)C(=O)N[C@@H](C)C(=O)N[C@@H](C)C(=O)N(C)[C@@H](CC(C)C)C(=O)N(C)[C@@H](CC(C)C)C(=O)N(C)[C@@H](C(C)C)C(=O)N1C	0.0000000
COc1ccc(CN(CCN(C)C)c2ccccn2)cc1	0.0000000
CCn1cc(C(=O)O)c(=O)c2cnc(N3CCNCC3)nc21	0.0000000
O=C(O)c1cccnc1Nc1cccc(C(F)(F)F)c1	0.0000000
Cc1ncc([N+](=O)[O-])n1CCO	0.0000000
CN(C)c1ncc2nc(-c3cccs3)c(=O)n(Cc3cccs3)c2n1	0.0000000
CCCCc1ccc2nc(NC(=O)OC)[nH]c2c1	0.0000000
Cn1c(=O)c2[nH]cnc2n(C)c1=O	0.0000000
C[C@@]12CC3CC(N)(C1)C[C@@](C)(C3)C2	0.0000000
C1CCC(C(C[C@@H]2CCCCN2)C2CCCCC2)CC1	0.0000000
O=C(CCCN1CC=C(n2c(=O)[nH]c3ccccc32)CC1)c1ccc(F)cc1	0.0000000
Cc1cccn2c(=O)c3cc(C(=O)NCC4CCCO4)c(=N)n(Cc4cccnc4)c3nc12 (stereo not shown)	0.0000000
CC(C)NC[C@@H](O)COc1cccc2ccccc12	0.0000000
N#C/C=C1\Sc2ccccc2C(=O)N1CC(=O)N1CCN(S(=O)(=O)c2ccccc2)CC1	0.0000000
CCCC(C)(COC(N)=O)COC(=O)NC(C)C (stereo not shown)	0.0000000
O=C(CCCN1CCC2(CC1)C(=O)NCN2c1ccccc1)c1ccc(F)cc1	0.0000000
O=C(O)c1cccnc1SCCc1ccccc1	0.0000000
Cc1cnc(NC(=O)C2=C(O)c3ccccc3S(=O)(=O)N2C)s1	0.0000000
COc1ccc(Cn2c3nc4ccccc4nc3c3c(=O)n(Cc4ccco4)c(C)nc32)cc1	0.0000000
O=C1c2c(O)ccc(O)c2C(=O)c2c(NCCNCCO)ccc(NCCNCCO)c21	0.0000000
CC[C@@]12CCCN3CCc4c(n(c5ccccc45)[C@](O)(C(=O)OC)C1)[C@H]32	0.0000000
O=C(CCCN1CCC2(CC1)C(=O)NCN2c1ccccc1)c1ccc(F)cc1	0.0000000
CC(C)Cc1ccc([C@H](C)C(=O)O)cc1	0.0000000
COCCn1c(=O)c(-c2ccc(F)cc2)nc2cnc(N(C)C)nc21	0.0000000
Cc1sc2ncnc(SCC(=O)N3CCN(C(=O)c4ccco4)CC3)c2c1C	0.0000000
O=C(O)c1cc(=O)c2ccccc2[nH]1	0.0000000
COCCn1c(=NC(=O)CSCC(=O)NC2CCCCC2)sc2cc(OC)ccc21	0.0000000
C[C@@]12CC[C@H]3[C@@H](CCC4=CC(=O)CC[C@]43C)[C@H]1CC[C@H]2C(=O)CO	0.0000000
COc1cc(C2Oc3cc(C4Oc5cc(O)cc(O)c5C(=O)C4O)ccc3OC2CO)ccc1O (stereo not shown)	0.0000000
C[N+]1(C)C2CC(OC(=O)C(CO)c3ccccc3)CC1[C@@H]1O[C@H]21 (stereo partly shown)	0.0000000
CC(C)NC[C@@H](O)COc1cccc2ccccc12	0.0000000
NCCCC(=O)O	0.0000000
O=c1oc2ccccc2c(O)c1Cc1c(O)c2ccccc2oc1=O	0.0000000
O=C(/C=C\c1ccc(O)c(O)c1)O[C@@H]1C[C@](O)(C(=O)O)C[C@@H](O)[C@@H]1O	0.0000000
COc1ccc2c3c(cccc13)OCC2=O	0.0000000
O=c1c(O)c(-c2cc(O)c(O)c(O)c2)oc2cc(O)cc(O)c12	0.0000000
NCCS(=O)(=O)O	0.0000000
C[C@@H]1c2cccc(O)c2C(O)=C2C(=O)[C@@]3(O)C(O)=C(C(N)=O)C(=O)[C@@H](N(C)C)[C@@H]3[C@@H](O)[C@@H]21	0.0000000
OCCOCCN1CCN(C(c2ccccc2)c2ccc(Cl)cc2)CC1 (stereo not shown)	0.0000000
CCOC(=O)N1CCC(=C2c3ccc(Cl)cc3CCc3cccnc32)CC1	0.0000000
O=C(C1CCCCC1)N1CC(=O)N2CCc3ccccc3[C@@H]2C1	0.0000000
OCCOCCN1CCN([C@@H](c2ccccc2)c2ccc(Cl)cc2)CC1	0.0000000
CCn1cc(C(=O)O)c(=O)c2cnc(N3CCNCC3)nc21	0.0000000
CC(C)N=C(N)/N=C(\N)Nc1ccc(Cl)cc1	0.0000000
C[C@H](NC(C)(C)C)C(=O)c1cccc(Cl)c1	0.0000000
c1ccc2c(CC3=NCCN3)cccc2c1	0.0000000
CCN(CC)CCNC(=O)COc1ccc(OC)cc1	0.0000000
Cn1c(=O)c2c(ncn2C)n(C)c1=O	0.0000000
CN1CCN(c2ncc3nc(-c4cc(F)cc(F)c4)c(=O)n(C)c3n2)CC1	0.0000000
COc1ccc(C(=O)NCc2cccnc2)cc1C(=O)NCc1cccnc1	0.0000000
COc1ccccc1OC[C@H](O)COC(N)=O	0.0000000
NCC1(CC(=O)O)CCCCC1	0.0000000
C[C@@H]1c2cccc(O)c2C(O)=C2C(=O)[C@@]3(O)C(O)=C(C(N)=O)C(=O)[C@@H](N(C)C)[C@@H]3[C@@H](O)[C@@H]21	0.0000000
CCCC(=O)Nc1ncnc2c1ncn2[C@@H]1O[C@@H]2COP(=O)(O)O[C@H]2[C@H]1OC(=O)CCC	0.0000000
O=c1c(O)c(-c2cc(O)c(O)c(O)c2)oc2cc(O)cc(O)c12	0.0000000
c1ccc2c(CC3=NCCN3)cccc2c1	0.0000000
CN1Cc2c(N)cccc2[C@H](c2ccccc2)C1	0.0000000
Cc1cn([C@H]2C[C@H](N=[N+]=[N-])[C@@H](CO)O2)c(=O)[nH]c1=O	0.0000000
CO/N=C(\C(=O)N[C@@H]1C(=O)N2C(C(=O)O)=C(COC(C)=O)CS[C@@H]12)c1csc(N)n1	0.0000000
Cc1nc2ccc(S(=O)(=O)NCC(=O)NCCN3CCCCCC3)cc2s1	0.0000000
c1ccc2nc(N3CCNCC3)ccc2c1	0.0000000
Cn1cc(-c2nc3cnc(N4CCNCC4)nc3n(CCc3ccccc3)c2=O)c2ccccc21	0.0000000
CCN(CC)CCC[C@H](C)Nc1ccnc2cc(Cl)ccc12	0.0000000
CC(C)[N+]1(C)[C@@H]2CC[C@H]1CC(OC(=O)[C@@H](CO)c1ccccc1)C2 (stereo partly shown)	0.0000000
COC(=O)C1=CN(C)C=C(C(=O)OC)C1c1ccc(O)c(OC)c1	0.0000000
O=C1CC[C@@]2(O)[C@H]3Cc4ccc(O)c5c4[C@@]2(CCN3CC2CC2)[C@@H]1O5	0.0000000
COc1ccc(NCc2cc3cc(OC)ccc3[nH]c2=O)cc1	0.0000000
CC(=O)Nc1ccc(O)cc1	0.0000000
C[C@H](NC(C)(C)C)C(=O)c1cccc(Cl)c1	0.0000000
N=c1nc(N2CCCCC2)cc(N)n1O	0.0000000
Cc1cnc(NC(=O)C2=C(O)c3ccccc3S(=O)(=O)N2C)s1	0.0000000

Once more, the final 6:

Result for O=C1CC[C@@]2(O)[C@H]3Cc4ccc(O)c5c4[C@@]2(CCN3CC2CC2)[C@@H]1O5 was max fluorescein-equivalent concentration 0.0000000 M.
Result for COc1ccc(NCc2cc3cc(OC)ccc3[nH]c2=O)cc1 was max fluorescein-equivalent concentration 0.0000000 M.
Result for CC(=O)Nc1ccc(O)cc1 was max fluorescein-equivalent concentration 0.0000000 M.
Result for C[C@H](NC(C)(C)C)C(=O)c1cccc(Cl)c1 was max fluorescein-equivalent concentration 0.0000000 M.
Result for N=c1nc(N2CCCCC2)cc(N)n1O was max fluorescein-equivalent concentration 0.0000000 M.
Result for Cc1cnc(NC(=O)C2=C(O)c3ccccc3S(=O)(=O)N2C)s1 was max fluorescein-equivalent concentration 0.0000000 M.